# In PMC10163288:
# This is one part of the list.
# B1: il2ra_site1_2b5i_normal_mot_HHH_b2_05082_af2_000000040_0001_1_19_H_._HHH_b1_05573_af2_0001_0000300024_0000001_0_af2pred_dldesign_0_af2pred (protein)
# chain: SSSSSSEDEIERLFKEALKLWKEGKKEEAKKLLEEALALAQAANDPKAVAELQRLLELLESSSSS
# B2: il2ra_site1_1z92_sap_13_mot_HHH_b2_05238_af2_000000252_0001_38_55_H_._HHH_b1_08154_af2_0001_0000200002_0000001_1_0001_af2pred_0001_af2pred_swapped (protein)
# chain: SSSSSRLERWARALVRIAAHLARLSEEQKEELERVAKEAVERGLDPEEIERLLDKVADELASSSS
# B3: il2ra_site2_3nfp_sap_22_mot_HHH_b1_06064_af2_000000154_0001_41_55_H_._4a166e40179e6c064b671d174dbdc8c6_0001_af2_0001_0000600026_0000001_0_0001 (protein)
# chain: SSSSSDEESEEYIRAALELLKRVKDPEVFESHVEVIRAAIEDLGDEELEEILEELEKRYNSSSSS
# B4: il2ra_site1_2b5i_normal_mot_HHH_b1_02271_000000068_0001_1_16_H_._HHH_b2_07932_0001_0000300036_0000001_0_af2pred_dldesign_0_af2pred (protein)
# chain: SSSSDLDAEVEKGLEEAERLKKEGKYKEAFEKLEKLYKKVSAADDEEREEKIEKKYKELSSSSSS
# B5: il2ra_site2_3nfp_normal_mot_HHH_b1_06797_000000164_0001_24_40_H_._HHH_b2_04507_0001_0000200012_0000001_0 (protein)
# chain: SSSSDKQEEYLRVVLALVREAEEAGDEFALRSSLEFALLLAEALNDEEVEKELRELLEELSSSSS
# B6: il2ra_site2_2erj_sap_21_mot_HHH_b2_00938_af2_000000099_0001_43_55_H_._HHH_b1_03152_af2_0001_0000100003_0000001_0_0001 (protein)
# chain: SSSSLHEAFEIAVEAAAKISRLHREGNDEEAKRVFEEARERLEELGTENAREHLEHLFKALSSSS
# B7: il2ra_site2_3nfp_normal_mot_HHH_b2_06150_000000217_0001_39_53_H_._HHH_b1_03322_0001_0000100005_0000001_0 (protein)
# chain: SSSSDIEERIEELLEEAKELIENGDPERAQEVLQEATHLAYEIRNSELFMRVAELLYLLRSSSSS
# B8: il2ra_site2_3nfp_normal_mot_HHH_b2_07946_000000046_0001_20_36_H_._de103a6a2759fb2eb67fe2c7ae4a7c2b_0001_0001_0000200009_0000001_0_af2pred_0001_af2pred (protein)
# chain: SRRLEALKILEELGDPEAAFLLYALVAEVLHEGDPELQRLLEEVLELVEEGDPEEAKRLLEEIDN
# B9: il2ra_site2_3nfp_normal_mot_HHH_b2_05281_000000198_0001_39_56_H_._HHH_b1_01561_0001_0000300023_0000001_0 (protein)
# chain: SSSSDVEERVEELLEEIRRLIEEGDEEKARRLLREVTELAYENRDSRLFFLVAELAFALFSSSSS
# B10: il2ra_site2_3nfp_normal_mot_HHH_b2_06150_000000217_0001_39_53_H_._HHH_b2_08021_af2_0001_0000300025_0000001_0 (protein)
# chain: SSSSSSDEEEVEELLEEAKKIEDEREREEVLARASEIAYEARNSELFYEIAEVLFELASSSSSSS
# B11: il2ra_site2_3nfp_sap_13_mot_HHH_b2_01406_000000272_0001_41_55_H_._HHH_b2_06395_0002_0000100003_0000001_0_0001 (protein)
# chain: SSSSDKSEEYLRVALALVREAEEEGDEEVLRSHIEAALAAAEDQGDEETFEELKKLLEELSSSSS
# B12: il2ra_site2_2erj_normal_mot_HHH_b2_05264_af2_000000057_0001_44_57_H_._HHH_b2_03657_af2_0001_0000300015_0000001_1 (protein)
# chain: SSSSSDKEYWEKVAELTAEAAHVEDEERVEELLREAEELAEEANNEFLKRYIEYARRAFSSSSSS
# B13: il2ra_site2_2erj_sap_21_mot_HHH_b2_01204_af2_000000056_0001_19_34_H_._HHH_b1_04067_0001_0000300007_0000001_1_0001_af2pred_0001_1_af2pred_swapped (protein)
# chain: SSSSDELEQVVEELVEELGLDEEAKKILEAAVRNLKESGYNRELAEKWLEHAARNLARARSSSSS
# B14: il2ra_site1_3nfp_sap_15_mot_HHH_b1_08274_000000052_0001_43_57_H_._HHH_b2_03144_0001_0000600064_0000001_1_0001 (protein)
# chain: SSSSDATEEFVERMVKWFGLDEEAKEILEEVVEELKERGVDWKEAAHILIEAAAKLQNNKSSSSS
# B15: il2ra_site1_2b5i_sap_13_mot_HHH_b1_06833_000000178_0001_1_19_H_._HHH_b2_05097_af2_0001_0000100003_0000001_0_0001_af2pred_dldesign_0_af2pred (protein)
# chain: SSSSDEAWDRVYDLFQEALRLRRAGKKEEARELLEEALRVAKEGKEEKALAEVEYLLSHLKSSSS
# B16: il2ra_site1_3nfp_normal_mot_d9cc8bee132a485d0ac603caa35b40b0_0001_000000230_0001_14_29_H_._09c2afe89fb4cbada1505b3a46965288_0001_af2_0001_0000300018_0000001_1 (protein)
# chain: GPRRLMLELALRLGDPKEALRILLEILEEELGDPEEARELLREVIERAARVPPERAEQALEEAEK
# B17: il2ra_site2_2erj_sap_14_mot_HHH_b2_03387_af2_000000185_0001_39_52_H_._HHH_b1_04906_af2_0001_0000200008_0000001_0_0001 (protein)
# chain: SSSSSRELFETLVRLMQAAAEGDEELFEKLFEEAQRLAEELGSDNAKEAIEQLKRLIEELLSSSS
# B18: il2ra_site1_1z92_normal_mot_2f6a785869a907c78cd0d4dd46df121f_0001_000000063_0001_1_13_H_._HEEHE_0610_0001_0000200027_0000001_0_af2pred_0001_af2pred (protein)
# chain: DHEERIEEQIERFAELAGVPSVSVEVSNNKITVTVEGDDSAARALRRFVEVAAKDLELEVEVTIN
# B19: il2ra_site2_3nfp_normal_mot_HHH_b1_05785_af2_000000002_0001_41_57_H_._HHH_b2_01690_af2_0001_0000800021_0000001_0 (protein)
# chain: SSSSNEAEEYLRAALLLLELALEEGNEELFRRHAELIRLLAESLEDEEVEKRVEELQEEFDSSSS
# Target: il2ra, P01589
# Experiment: yeast display titration
row,Binder,apparent Kd
1,B1,inactive: no binding seen
2,B2,inactive: no binding seen
3,B3,inactive: no binding seen
4,B4,inactive: no binding seen
5,B5,inactive: no binding seen
6,B6,inactive: no binding seen
7,B7,inactive: no binding seen
8,B8,inactive: no binding seen
9,B9,inactive: no binding seen
10,B10,inactive: no binding seen
11,B11,inactive: no binding seen
12,B12,inactive: no binding seen
13,B13,inactive: no binding seen
14,B14,inactive: no binding seen
15,B15,inactive: no binding seen
16,B16,inactive: no binding seen
17,B17,inactive: no binding seen
18,B18,inactive: no binding seen
19,B19,inactive: no binding seen

# At a glance, some entries already given.
row,Binder,apparent Kd
9,B9,inactive: no binding seen
10,B10,inactive: no binding seen
